{"source": "paper PMC9279437", "about": "“Cytopathic SARS-CoV-2 screening on VERO-E6 cells in a large-scale repurposing effort” (Scientific Data, 2022)", "key": {"[1]": {"test_system": "SARS-CoV-2", "assay": "microbe, parasite or virus in culture", "details": "Severe acute respiratory syndrome coronavirus 2, Vero C1008, 96 h"}, "[2]": {"test_system": "SARS-CoV-2"}}, "note": "Where a name gives a salt, the structure may show the parent alone. Read-outs that look alike come from different tables or passages of the source."}
{"smiles": "CCN(CC)CCOc1ccc(C(=C(Cl)c2ccccc2)c2ccccc2)cc1", "note": "[Clomiphene citrate]", "values": [{"measurement": "IC50", "setting": "[1]", "result": "< 20", "unit": "µM"}, {"measurement": "IC50", "setting": "[2]", "result": 13.6, "unit": "µM"}, {"measurement": "SI (CC50/IC50)", "setting": "[2]", "result": 2.42}]}
